This series in a line: general procedure: Fmoc solid-phase peptide synthesis; Rink Amide resin (0.2 mmol/g); Wang resin (0.66 mmol/g).

Numbered stars: 1 amine (or outer) side, 2 acyl side, 3 side chain; on linkers, the order of the positions; unused ones are H or OH. Bridge positions count the residues as written; N and C are the ends. * marks the point of attachment. X1 = NC(N)=NCCNC(=O)CCOCC(COCCC(=O)NCCN=C(N)N)(COCCC(=O)NCCN=C(N)N)NC(=O)CON=C(C[*:1])C[*:2]; FITC = O=C1OC2(c3ccc(O)cc3Oc3cc(O)ccc32)c2ccc(NC(=S)*)cc21; Fmoc = O=C(OCC1c2ccccc2-c2ccccc21)*; Ahx = NCCCCCC(=O)O

Substance “{FITC-Ahx}-CMLYIVPYFSVGC-NH2 (linker 1-13 via X1)” registered a conjugation yield (conjugation step) of 40%.

Regarding “{Fmoc-Ahx}-CMLYIVPYFSVGC-NH2 (cysteine pairing not given here)”, for the setting “cyclisation step”, the cyclisation yield turned out to be 97%.
